Assay results taken from patent US20120263730A1.

Assays:
mouse Syndecan-1 (mouse) [1] = target: T1, mouse Syndecan-1 (mouse) (UniProt P18828); assay: cell surface binding, AP fusion on transfected HEK293T cells
T1 sequence (glycosaminoglycan chains (sites not stated), looked up): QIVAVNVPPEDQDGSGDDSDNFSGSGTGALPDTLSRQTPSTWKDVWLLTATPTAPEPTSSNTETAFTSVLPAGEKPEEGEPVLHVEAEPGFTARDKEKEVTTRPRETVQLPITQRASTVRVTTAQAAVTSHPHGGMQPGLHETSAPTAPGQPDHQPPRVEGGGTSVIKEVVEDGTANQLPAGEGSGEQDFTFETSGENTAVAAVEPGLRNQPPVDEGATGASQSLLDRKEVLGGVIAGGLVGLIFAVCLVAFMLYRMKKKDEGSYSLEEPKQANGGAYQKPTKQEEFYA

mouse Syndecan-1 (mouse) [2] = target: T1, mouse Syndecan-1 (mouse); assay: cell surface binding, AP fusion on transfected HEK293T cells, AP staining
human Glypican-2 (human) [3] = target: T2, human Glypican-2 (human) (UniProt Q8N158); assay: cell surface binding, AP fusion on transfected cells
T2 sequence (looked up): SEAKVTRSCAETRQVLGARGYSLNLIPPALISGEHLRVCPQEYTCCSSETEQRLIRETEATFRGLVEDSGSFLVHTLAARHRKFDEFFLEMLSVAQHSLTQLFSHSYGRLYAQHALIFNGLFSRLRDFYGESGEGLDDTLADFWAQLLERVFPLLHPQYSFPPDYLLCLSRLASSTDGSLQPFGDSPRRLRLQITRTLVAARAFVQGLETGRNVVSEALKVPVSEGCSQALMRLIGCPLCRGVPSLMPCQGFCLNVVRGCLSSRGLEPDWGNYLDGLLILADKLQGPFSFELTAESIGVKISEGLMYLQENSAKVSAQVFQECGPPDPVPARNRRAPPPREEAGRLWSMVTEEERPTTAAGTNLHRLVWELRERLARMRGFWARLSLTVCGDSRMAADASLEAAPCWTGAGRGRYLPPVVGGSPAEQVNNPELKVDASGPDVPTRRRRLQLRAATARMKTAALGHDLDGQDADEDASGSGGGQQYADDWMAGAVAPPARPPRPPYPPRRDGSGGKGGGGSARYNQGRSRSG

human Glypican-4 (human) [4] = target: T3, human Glypican-4 (human) (UniProt O75487); assay: as above
T3 sequence (looked up): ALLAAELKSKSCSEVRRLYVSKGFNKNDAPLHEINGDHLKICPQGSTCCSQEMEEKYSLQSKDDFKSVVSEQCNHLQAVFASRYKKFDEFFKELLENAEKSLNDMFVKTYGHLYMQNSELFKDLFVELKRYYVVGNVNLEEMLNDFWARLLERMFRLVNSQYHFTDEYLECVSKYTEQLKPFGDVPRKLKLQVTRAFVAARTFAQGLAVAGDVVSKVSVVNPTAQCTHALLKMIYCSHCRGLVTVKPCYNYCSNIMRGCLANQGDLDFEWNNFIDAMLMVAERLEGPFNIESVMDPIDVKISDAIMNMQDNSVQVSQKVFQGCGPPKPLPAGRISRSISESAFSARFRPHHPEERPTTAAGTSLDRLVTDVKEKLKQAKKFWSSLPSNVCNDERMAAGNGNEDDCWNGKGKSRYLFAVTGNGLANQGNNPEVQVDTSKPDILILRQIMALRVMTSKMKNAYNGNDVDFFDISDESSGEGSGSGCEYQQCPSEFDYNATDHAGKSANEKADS

human Glypican-6 (human) [5] = target: T4, human Glypican-6 (human) (UniProt Q9Y625); assay: as above
T4 sequence (looked up): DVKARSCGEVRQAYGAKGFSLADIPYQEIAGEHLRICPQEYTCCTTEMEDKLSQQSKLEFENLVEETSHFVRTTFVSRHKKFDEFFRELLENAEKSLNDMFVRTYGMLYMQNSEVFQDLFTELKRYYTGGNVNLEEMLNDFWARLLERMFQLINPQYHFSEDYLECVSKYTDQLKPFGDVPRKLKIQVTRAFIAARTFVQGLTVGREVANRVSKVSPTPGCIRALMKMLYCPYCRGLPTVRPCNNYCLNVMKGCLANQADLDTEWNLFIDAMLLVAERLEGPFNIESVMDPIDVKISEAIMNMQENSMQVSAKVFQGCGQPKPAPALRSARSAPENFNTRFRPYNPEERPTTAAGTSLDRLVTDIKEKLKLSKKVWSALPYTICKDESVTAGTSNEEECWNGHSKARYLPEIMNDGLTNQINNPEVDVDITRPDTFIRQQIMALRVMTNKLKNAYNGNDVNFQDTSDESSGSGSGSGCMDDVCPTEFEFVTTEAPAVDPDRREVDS

human Glypican-1 (human) [6] = target: T5, human Glypican-1 (human) (UniProt P35052); assay: as above
T5 sequence (looked up): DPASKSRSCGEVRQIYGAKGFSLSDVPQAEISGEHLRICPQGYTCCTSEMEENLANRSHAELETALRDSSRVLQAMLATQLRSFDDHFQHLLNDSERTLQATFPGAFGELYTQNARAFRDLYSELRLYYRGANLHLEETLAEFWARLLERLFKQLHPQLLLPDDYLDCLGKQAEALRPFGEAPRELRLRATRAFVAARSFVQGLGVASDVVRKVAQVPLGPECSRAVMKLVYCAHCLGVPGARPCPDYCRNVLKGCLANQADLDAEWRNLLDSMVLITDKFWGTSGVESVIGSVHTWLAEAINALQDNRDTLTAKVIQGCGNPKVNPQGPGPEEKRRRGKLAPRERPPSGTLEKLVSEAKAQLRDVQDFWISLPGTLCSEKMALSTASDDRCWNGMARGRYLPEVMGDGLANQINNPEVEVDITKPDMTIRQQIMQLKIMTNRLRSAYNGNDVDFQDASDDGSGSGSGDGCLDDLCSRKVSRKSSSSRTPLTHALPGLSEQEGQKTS

human Glypican-5 (human) [7] = target: T6, human Glypican-5 (human) (UniProt P78333); assay: as above
T6 sequence (looked up): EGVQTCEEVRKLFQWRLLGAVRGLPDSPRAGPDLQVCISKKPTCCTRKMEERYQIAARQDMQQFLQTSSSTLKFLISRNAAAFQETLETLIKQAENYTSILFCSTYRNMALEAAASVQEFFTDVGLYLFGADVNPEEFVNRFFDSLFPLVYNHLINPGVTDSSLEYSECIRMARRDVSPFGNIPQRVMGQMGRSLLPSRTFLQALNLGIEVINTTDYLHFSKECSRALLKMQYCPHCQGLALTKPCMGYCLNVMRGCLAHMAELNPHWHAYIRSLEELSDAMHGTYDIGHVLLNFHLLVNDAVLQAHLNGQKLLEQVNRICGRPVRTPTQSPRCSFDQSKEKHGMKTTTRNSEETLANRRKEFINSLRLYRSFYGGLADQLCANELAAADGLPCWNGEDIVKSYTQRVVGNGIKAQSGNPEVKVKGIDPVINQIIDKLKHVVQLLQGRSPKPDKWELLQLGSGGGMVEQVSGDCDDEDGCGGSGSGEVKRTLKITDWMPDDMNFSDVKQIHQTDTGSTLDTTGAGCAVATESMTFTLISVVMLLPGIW

human Glypican-2 (human) [8] = target: T2, human Glypican-2 (human); assay: cell surface binding on transfected cells
human Glypican-4 (human) [9] = target: T3, human Glypican-4 (human); assay: cell surface binding on transfected cells
human Glypican-6 (human) [10] = target: T4, human Glypican-6 (human); assay: cell surface binding on transfected cells
human Glypican-1 (human) [11] = target: T5, human Glypican-1 (human); assay: cell surface binding on transfected cells
human Glypican-5 (human) [12] = target: T6, human Glypican-5 (human); assay: cell surface binding on transfected cells
[13] = target: T7, N-streptag-hSdc4ΔGAG (human Syndecan-4 with serine 63, 97, 95, 138 replaced by alanine) (human) (UniProt P31431); assay: cell surface binding on transfected HEK293T cells
T7 sequence (chain, still incorporated 35S-sulfate and therefore still contained GAGs): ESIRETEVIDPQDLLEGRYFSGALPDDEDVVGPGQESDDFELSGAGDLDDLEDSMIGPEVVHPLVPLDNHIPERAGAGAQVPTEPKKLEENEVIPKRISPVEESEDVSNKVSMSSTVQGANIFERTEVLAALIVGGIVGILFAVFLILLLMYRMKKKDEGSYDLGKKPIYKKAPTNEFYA

Measured: binding

hRspo2ΔC-AP (human Rspondin-2 aa 1-206 fused to alkaline phosphatase) (ligand)
binds: mouse Syndecan-1 (mouse) [1] | mouse Syndecan-1 (mouse) [2]

hRspo3ΔC-AP (human Rspondin-3 aa 1-209 fused to alkaline phosphatase) (ligand)
binds: all assays above

Results are given in words; binding and its absence hold for the method and conditions named. Binding calls can cover weak binding; strength is not graded here. For part of these data: Where a sequence is shown, tags or fusion partners need not be part of it.
